From article PMC7819943, “Rice protein-binding microarrays: a tool to detect cis-acting elements near promoter regions in rice” come the findings set out here.

The other results are listed elsewhere or left out.

For this assay, the target named is T1, OsSMF1 (Oryza sativa, UniProt Q6ZLB0 1-436).
T1 sequence: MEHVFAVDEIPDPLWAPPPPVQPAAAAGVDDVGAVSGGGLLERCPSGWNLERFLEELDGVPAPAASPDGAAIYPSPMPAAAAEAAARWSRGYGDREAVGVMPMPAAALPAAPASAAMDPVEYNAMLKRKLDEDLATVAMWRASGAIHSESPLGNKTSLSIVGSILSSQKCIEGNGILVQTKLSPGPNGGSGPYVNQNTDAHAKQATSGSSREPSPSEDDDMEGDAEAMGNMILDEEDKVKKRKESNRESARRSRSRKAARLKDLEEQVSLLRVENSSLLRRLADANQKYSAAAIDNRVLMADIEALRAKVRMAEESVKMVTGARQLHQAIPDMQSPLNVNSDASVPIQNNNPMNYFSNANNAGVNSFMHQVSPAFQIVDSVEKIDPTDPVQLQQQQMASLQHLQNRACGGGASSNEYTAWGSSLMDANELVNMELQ
The assay can be described thus: protein-binding microarray (RPBM); PBS, 2% BSA, 51.3 ng/ul salmon testes DNA, 50 uM zinc acetate, 200 nM TF, 25 C, 1 h; high values mean tight binding. The settings on record: protein: recombinant; tags: N-terminal polyhistidine and DsRed monomer fusion (pET32a); chain copies: 2; label: CyDye5-dUTP incorporated in the synthesized complementary strand; 3' TTTTT single-stranded linker to array surface; dsDNA, one strand shown. In short, it runs like this:
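Binding signal is defined as the fluorescence intensity of each feature in arbitrary units, read on an Axon 4000B scanner. Transcription factors with N-terminal polyhistidine and DsRed fusions came from E. coli BL21-CodonPlus and were purified on Ni–NTA. They were incubated at 200 nM for 1 h at 25 °C on a custom Agilent array that had been made double-stranded with Cy5-dUTP, with 50 µM zinc acetate present, and the array was washed.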
“GACTTCTCGTCCTCCCTGTTGCAGAGGCTTCTCCGGCGAGCGGAGTCACCTAGTGCAG”: the binding signal was 4780 fluorescence intensity (a.u.).
With “ATAATGGAGGCGGATAACAGATGACGACACGGCCGGAACGCGGAGTCACCTAGTGCAG” the figure was 4560 fluorescence intensity (a.u.); with “TATATGTACGTAGCCCATGACGCGCACGCCTTCTTGGTGACGGAGTCACCTAGTGCAG”, 3600 fluorescence intensity (a.u.); with “CTTACTTACATCTGCATCATTCAGTCTACTAACCACAATACGGAGTCACCTAGTGCAG”, 3280 fluorescence intensity (a.u.).
Turning to “CCATCGCTTCGCCATGGCGACCGGCTTGCCGGAGGAAGAGCGGAGTCACCTAGTGCAG”, the binding signal is 5610 fluorescence intensity (a.u.).
As for “AGGTATATGGTGTACCTGCGTCATCTGTTGTTCATGCTGACGGAGTCACCTAGTGCAG”, the binding signal is 6250 fluorescence intensity (a.u.).
As to “CTACCGAACACTGCCATCCAGCAGACCAATTTGCAACGATCGGAGTCACCTAGTGCAG”, the binding signal was 18300 fluorescence intensity (a.u.).
In the case of “TAGCTAATCCTCTTCAACACGCAGCCACCGTGTCGACGCCCGGAGTCACCTAGTGCAG”, the binding signal is 3550 fluorescence intensity (a.u.).
With “ATGCACTTCCTGTCACGGTCCGGCCCATCCTAGCTGCCGGCGGAGTCACCTAGTGCAG”, the binding signal is 3290 fluorescence intensity (a.u.).
With “CGAAACGATAGGGCCAACAATGACACCTACACTTCTTCCGCGGAGTCACCTAGTGCAG” the figure was 5100 fluorescence intensity (a.u.); with “CGCGGCCATCGCAGTCGCCCAGTCATTGTCCCACCGCCTCCGGAGTCACCTAGTGCAG”, 4320 fluorescence intensity (a.u.); with “GCAGTTCTTTCGATTCTACTTGGCGACGACATCCATGTGTCGGAGTCACCTAGTGCAG”, 3240 fluorescence intensity (a.u.).
“TTATTCGATATATGATGTGTAAGCTACTTGATGCAAGCCACGGAGTCACCTAGTGCAG”: the binding signal was 3640 fluorescence intensity (a.u.).
For “ATATAAGATGTAACTATTACGATGTTTCATGATACAAGTACGGAGTCACCTAGTGCAG”, the binding signal is 15000 fluorescence intensity (a.u.).
For the sequence “GAGATCGTCTATTTCTACCAAGAGGAGCCGAGCCGCTGCCCGGAGTCACCTAGTGCAG”, the binding signal was 7740 fluorescence intensity (a.u.).
For the sequence “TGCCGCGTCGTCGCTCGTCGTCACCGATCGTGCGCACTCCCGGAGTCACCTAGTGCAG”, the binding signal is 5580 fluorescence intensity (a.u.).
With “AGCCAACGCCGCGGGATACACGCCACGTCAGAGCATCCGCCGGAGTCACCTAGTGCAG”, the binding signal was 18000 fluorescence intensity (a.u.).
Consider “TCCAGGTTCCAGCACCATCAGCTGACAAAGTGTACAAGAACGGAGTCACCTAGTGCAG”, for which the binding signal was 3310 fluorescence intensity (a.u.).
With “TAGGGGAGCCTCGACACGACGCCGCTGGCGTGGCGCGTCCCGGAGTCACCTAGTGCAG” the figure was 9370 fluorescence intensity (a.u.); with “AATGAAAAGAAAATCTTACCAATGCTGCGATGCTGACACCCGGAGTCACCTAGTGCAG”, 3580 fluorescence intensity (a.u.); with “GGTCGTTTGTTCTTTTGTCTTGCCTATTATGCTCCGTCATCGGAGTCACCTAGTGCAG”, 4640 fluorescence intensity (a.u.).
With “CACATCTCTAGACGGATCGGCCACGCTACATCCATCTTAGCGGAGTCACCTAGTGCAG” the figure was 3980 fluorescence intensity (a.u.).
For the sequence “TTTCCGTCTGACCAGCGAGCCCGTCATCCGTCTTTGCCGCCGGAGTCACCTAGTGCAG”, the binding signal is 4250 fluorescence intensity (a.u.).
For “TATGAGTTGCATATTTTAAGTGGCAACTGTTAATCTCAGCCGGAGTCACCTAGTGCAG”, the binding signal is 11100 fluorescence intensity (a.u.).
Turning to “GGGAGGATGGCCCACACGTCAGTGATAGAGGGTCCGTTCCCGGAGTCACCTAGTGCAG”, the binding signal is 6000 fluorescence intensity (a.u.).
On to “AACGTGAACCTGTTGTCCCTCGTGGCAGCTACCCACGCCTCGGAGTCACCTAGTGCAG”, for which the binding signal is 7260 fluorescence intensity (a.u.).
“CTCGTGACGTGACGTGCTGGTGTCGTCCCCTCCTCATCTTCGGAGTCACCTAGTGCAG”: the binding signal is 12700 fluorescence intensity (a.u.).
Regarding “AATTAGTGCATAAACCGCAGGTTTGACTCACATGTTATATCGGAGTCACCTAGTGCAG”, the binding signal was 3360 fluorescence intensity (a.u.).
Take “TAAATGAAACTTTTGTCTTGAGTTAACACCGTCATCTTGCCGGAGTCACCTAGTGCAG”: the binding signal was 3480 fluorescence intensity (a.u.).
Regarding “GGTAACTTCTGCATGAGCCCGTGATGTGTGGGGCCCACATCGGAGTCACCTAGTGCAG”, the binding signal is 3450 fluorescence intensity (a.u.).
“TTCATGTGGCTGCTCTTCCTGAGCCATAGGATCGGCGGAACGGAGTCACCTAGTGCAG”: the binding signal is 35000 fluorescence intensity (a.u.).
Regarding “GACTCGAATCCGTGACACGTAATGTGCCTTTCACGTGCCCCGGAGTCACCTAGTGCAG”, the binding signal is 13500 fluorescence intensity (a.u.).
With “TAGCAGATCTATTTCTTGACACGTAACCTTACTTTCCATCCGGAGTCACCTAGTGCAG”, the binding signal was 12300 fluorescence intensity (a.u.).
Regarding “GCATGTGATTAATCGGTGATTATGTCTTAATGGAAGGAAACGGAGTCACCTAGTGCAG”, the binding signal was 3890 fluorescence intensity (a.u.).
On to “ATGTCTCTGCCATGGCACCATGGCAAGATGCACATATGCACGGAGTCACCTAGTGCAG”, for which the binding signal is 3930 fluorescence intensity (a.u.).
As for “CACGACCCCACGTGCCAGTGAGCTGGACGCGCATCGTCTTCGGAGTCACCTAGTGCAG”, the binding signal is 7410 fluorescence intensity (a.u.).
“TCGATCTGCACATGTGCACGCGCATGTGTCGTCGGCTTAGCGGAGTCACCTAGTGCAG”: the binding signal was 3230 fluorescence intensity (a.u.).
In the case of “CACTACCCTTCACCTTCATCACTAATATACAGTGCCAAAACGGAGTCACCTAGTGCAG”, the binding signal is 6330 fluorescence intensity (a.u.).
As for “ACAAATTTATCAGCGTCAGAATCAAGCAAAGGAAATTGGACGGAGTCACCTAGTGCAG”, the binding signal was 3370 fluorescence intensity (a.u.).
As to “TCGTTTTAATTGACCACGTACTCAATCCGGTACTCTCCTTCGGAGTCACCTAGTGCAG”, the binding signal is 5820 fluorescence intensity (a.u.).
Under “GAATTGCCGCCACGCCGATCCTTTGCGCCACAGAGTAATACGGAGTCACCTAGTGCAG” stands 28900 fluorescence intensity (a.u.); under “GGTTGTGTGGTGGTATAGCCTATAGGTCTGGATTAGTTGGCGGAGTCACCTAGTGCAG”, 20800 fluorescence intensity (a.u.).
